# Assay results: the supplement of paper PMC8728848
# This is one part of the list.
# Key:
# Experiment in all cases: glycan array binding signal (z-score within array); higher = stronger binding
# Settings in all cases: glycan notation: IUPAC condensed, linker removed
# [1] = molecular target: Neu5Ac(a2-8)Neu5Ac
# How it was run: (§1)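 The binding signal is a Z-score computed within each array and averaged over linkers. Arrays of the same protein sequence at different concentrations or buffers were also averaged together. Data originate from 3228 arrays in the Consortium for Functional Glycomics database, kept only where the protein sequence was available.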
# [2] = molecular target: Neu5Ac(a2-8)Neu5Ac(a2-3)Gal(b1-4)Glc
# How it was run: as §1
# [3] = molecular target: Neu5Ac(a2-8)Neu5Ac(a2-3)[GalNAc(b1-4)]Gal(b1-4)Glc
# How it was run: as §1
# [4] = molecular target: Neu5Ac(a2-8)Neu5Ac(a2-8)Neu5Ac
# How it was run: as §1
# [5] = molecular target: Neu5Ac(a2-8)Neu5Ac(a2-8)Neu5Ac(a2-3)Gal(b1-4)Glc
# How it was run: as §1
# [6] = molecular target: Neu5Ac(a2-8)Neu5Ac(a2-8)Neu5Ac(a2-3)[GalNAc(b1-4)]Gal(b1-4)Glc
# How it was run: as §1
# [7] = molecular target: Neu5Ac(a2-8)Neu5Ac(a2-8)Neu5Ac(a2-8)Neu5Ac(a2-3)[GalNAc(b1-4)]Gal(b1-4)Glc
# How it was run: as §1
# [8] = molecular target: Neu5Ac(b2-6)Gal(b1-4)GlcNAc
# How it was run: as §1
# [9] = molecular target: Neu5Ac(b2-6)GalNAc
# How it was run: as §1
# [10] = molecular target: Neu5Ac9Ac(a2-3)Gal(b1-3)GlcNAc
# How it was run: as §1
# [11] = molecular target: Neu5Ac9Ac(a2-3)Gal(b1-4)GlcNAc
# How it was run: as §1
# [12] = molecular target: Neu5Ac9Ac(a2-6)Gal(b1-4)GlcNAc
# How it was run: as §1
# [13] = molecular target: Neu5Gc(a2-3)Gal(b1-3)GlcNAc
# How it was run: as §1
# [14] = molecular target: Neu5Gc(a2-3)Gal(b1-3)[Fuc(a1-4)]GlcNAc
# How it was run: as §1
# [15] = molecular target: Neu5Gc(a2-3)Gal(b1-4)Glc
# How it was run: as §1
# [16] = molecular target: Neu5Gc(a2-3)Gal(b1-4)GlcNAc
# How it was run: as §1
# [17] = molecular target: Neu5Gc(a2-3)Gal(b1-4)[Fuc(a1-3)]GlcNAc
# How it was run: as §1
# [18] = molecular target: Neu5Gc(a2-6)Gal(b1-4)GlcNAc
# How it was run: as §1
# [19] = molecular target: Neu5Gc(a2-6)GalNAc
# How it was run: as §1
# [20] = molecular target: Neu5Gc(b2-6)Gal(b1-4)GlcNAc
# How it was run: as §1
binder,measurement,setting,value
"SAG1 (Toxoplasma gondii), P13664 (protein) MSVSLHHFIISSGFLTSMFPKAVRRAVTAGVFAAPTLMSFLRCGVMASDPPLVANQVVTCPDKKSTAAVILTPTENHFTLKCPKTALTEPPTLAYSPNRQICPAGTTSSCTSKAVTLSSLIPEAEDSWWTGDSASLDTAGIKLTVPIEKFPVTTQTFVVGCIKGDDAQSCMVTVTVQARASSVVNNVARCSYGADSTLGPVKLSAEGPTTMTLVCGKDGVKVPQDNNQYCSGTTLTGCNEKSFKDILPKLTENPWQGNASSDKGATLTIKKEAFPAESKSVIIGCTGGSPEKHHCTVKLEFAGAAGSAKSAAGTASHVSIFAMVIGLIGSIAACVA",glycan array binding signal (z-score),[1],0.023
same,glycan array binding signal (z-score),[2],-0.543
same,glycan array binding signal (z-score),[3],0.972
same,glycan array binding signal (z-score),[4],0.35
same,glycan array binding signal (z-score),[5],-1.02
same,glycan array binding signal (z-score),[6],1.02
same,glycan array binding signal (z-score),[7],-0.241
same,glycan array binding signal (z-score),[8],-0.487
same,glycan array binding signal (z-score),[9],-0.35
same,glycan array binding signal (z-score),[10],-1.11
same,glycan array binding signal (z-score),[11],-0.027
same,glycan array binding signal (z-score),[12],-1.11
same,glycan array binding signal (z-score),[13],0.479
same,glycan array binding signal (z-score),[14],0.031
same,glycan array binding signal (z-score),[15],0.776
same,glycan array binding signal (z-score),[16],-0.231
same,glycan array binding signal (z-score),[17],0.199
same,glycan array binding signal (z-score),[18],-0.403
same,glycan array binding signal (z-score),[19],0.136
same,glycan array binding signal (z-score),[20],0.582

# Part of the list above, tab-delimited.
binder	measurement	setting	value
SAG1 (Toxoplasma gondii), P13664 (protein) MSVSLHHFIISSGFLTSMFPKAVRRAVTAGVFAAPTLMSFLRCGVMASDPPLVANQVVTCPDKKSTAAVILTPTENHFTLKCPKTALTEPPTLAYSPNRQICPAGTTSSCTSKAVTLSSLIPEAEDSWWTGDSASLDTAGIKLTVPIEKFPVTTQTFVVGCIKGDDAQSCMVTVTVQARASSVVNNVARCSYGADSTLGPVKLSAEGPTTMTLVCGKDGVKVPQDNNQYCSGTTLTGCNEKSFKDILPKLTENPWQGNASSDKGATLTIKKEAFPAESKSVIIGCTGGSPEKHHCTVKLEFAGAAGSAKSAAGTASHVSIFAMVIGLIGSIAACVA	glycan array binding signal (z-score)	[7]	-0.241
same	glycan array binding signal (z-score)	[14]	0.031
